In patent US9668497B2, “Flavor-enhancing compounds” (INTERNATIONAL FLAVORS & FRAGRANCES INC., priority 2015, dated 2017):

Experiments:
Type in all cases: in vivo
[1] = Cooling enhancement in WS-23 (35 ppm)
Procedure: (§1) The cooling enhancement of Formula I and Na-Formula I in cooling compounds including WS-5 (30 ppm), WS-23 (35 ppm), menthyl lactate (35 ppm), WS-3 (30 ppm) and Cooler 2 (10 ppm) was also evaluated.

[2] = Cooling enhancement in menthol (35 ppm), trained sensory panel
Procedure: The flavor compositions of menthol (35 ppm) combined with 7,8-dihydroxy-2-phenyl-4H-chromen-4-one (Formula I) at different concentrations were evaluated by a trained sensory panel. Sensory results are reported in the following. […]

[3] = Cooling enhancement in WS-3 (30 ppm)
Procedure: as §1

[4] = Cooling enhancement in menthyl lactate (35 ppm)
Procedure: as §1

[5] = Cooling enhancement in WS-5 (30 ppm)
Procedure: as §1

[6] = Cooling enhancement in Cooler 2 (10 ppm)
Procedure: as §1

## O=c1cc(-c2ccccc2)oc2c(O)c(O)ccc12 [Formula I, 7,8-dihydroxy-2-phenyl-4H-chromen-4-one]
[1]; test substance 30 ppm
  Evaluation on the Cooling Enhancement: accompanying note: slight burning note
[1]; test substance 40 ppm
  Evaluation on the Cooling Enhancement: accompanying note: harsh burning note
[1]; test substance 50 ppm
  Evaluation on the Cooling Enhancement: accompanying note: harsh burning note
[1]; test substance 100 ppm
  Evaluation on the Cooling Enhancement: accompanying note: harsh burning note
[2]; test substance 20 ppm
  Flavor Profile: accompanying note: reduced bitterness
[2]; test substance 30 ppm (slight burning note)
  Flavor Profile: accompanying note: burning note
[2]; test substance 40 ppm (reduced bitterness and burning note)
  Flavor Profile: accompanying note: bitterness and burning note
[2]; test substance 50 ppm (harsh burning note)
  Flavor Profile: accompanying note: burning note
[2]; test substance 100 ppm (harsh burning note)
  Flavor Profile: accompanying note: burning note
[3]; test substance 30 ppm
  Evaluation on the Cooling Enhancement: accompanying note: slight burning note
[3]; test substance 40 ppm
  Evaluation on the Cooling Enhancement: accompanying note: harsh burning note
[3]; test substance 50 ppm
  Evaluation on the Cooling Enhancement: accompanying note: harsh burning note
[3]; test substance 100 ppm
  Evaluation on the Cooling Enhancement: accompanying note: harsh burning note
[4]; test substance 30 ppm
  Evaluation on the Cooling Enhancement: accompanying note: slight burning note
[4]; test substance 40 ppm
  Evaluation on the Cooling Enhancement: accompanying note: harsh burning note
[4]; test substance 50 ppm
  Evaluation on the Cooling Enhancement: accompanying note: harsh burning note
[4]; test substance 100 ppm
  Evaluation on the Cooling Enhancement: accompanying note: harsh burning note
[5]; test substance 30 ppm
  Evaluation on the Cooling Enhancement: accompanying note: slight burning note
[5]; test substance 40 ppm
  Evaluation on the Cooling Enhancement: accompanying note: harsh burning note
[5]; test substance 50 ppm
  Evaluation on the Cooling Enhancement: accompanying note: harsh burning note
[5]; test substance 100 ppm
  Evaluation on the Cooling Enhancement: accompanying note: harsh burning note
[6]; test substance 30 ppm
  Evaluation on the Cooling Enhancement: accompanying note: slight burning note
[6]; test substance 40 ppm
  Evaluation on the Cooling Enhancement: accompanying note: harsh burning note
[6]; test substance 50 ppm
  Evaluation on the Cooling Enhancement: accompanying note: harsh burning note
[6]; test substance 100 ppm
  Evaluation on the Cooling Enhancement: accompanying note: harsh burning note
